Data reported in publication PMC5996148.
Values joined by “and” are separate entries in the source; they are usually repeats but may differ in a detail not shown here. Equal values may be shown once. This is one part of the list.

What was measured:
Test in all cases: protein microarray (ProtoArray v5.0), streptavidin-Alexa Fluor 647
Details in all cases: 3'-biotin; 20 mM Tris (pH 7.5), 5 mM MgCl2, 100 mM KCl, 0.1% Tween-20, A/T-rich and random oligonucleotide blockers; temperature not stated; high values mean tight binding
MRS2L (human) = tested on: MRS2L (human)
MTAP (human) = tested on: MTAP (human)
MTMR1 (human) = tested on: MTMR1 (human)
MTMR2 (human) = tested on: MTMR2 (human)
MYCBP (human) = tested on: MYCBP (human)
[1] = tested on: Malate dehydrogenase, cytoplasmic (human)
Malcavernin (human) = tested on: Malcavernin (human)
Mammaglobin-A (human) = tested on: Mammaglobin-A (human)
[2] = tested on: Mannose-6-phosphate receptor-binding protein 1 (human)
[3] = tested on: Mediator of RNA polymerase II transcription subunit 22 (human)

## GGTGACAGGGGTATGGGGAGGGG [G4-2 biotinylated (Ct1)]
MRS2L (human)
  binding signal: -0.398 z-score
MTAP (human)
  binding signal: -0.383 z-score and -0.37 z-score
MTMR1 (human)
  binding signal: -0.382 z-score
MTMR2 (human)
  binding signal: -0.41 z-score
MYCBP (human)
  binding signal: -0.396 z-score
[1]
  binding signal: -0.363 z-score
Malcavernin (human)
  binding signal: -0.392 z-score
Mammaglobin-A (human)
  binding signal: -0.394 z-score
[2]
  binding signal: -0.403 z-score
[3]
  binding signal: -0.396 z-score
